Laboratory results: US6562591
No constants are given. Whether binding was seen depends on the method and setting. Binding seen in cells or lysates may run through a third protein. Some entries that bind do so weakly or less than the wild type. For some assays here: Where a sequence is shown, tags or fusion partners need not be part of it.

By UniProt entry, the sequences of proteins in these tests, tags left out. Where a name states a change or a piece, a line headed by the entry shows the natural chain unless it says otherwise.
UniProt Q9UKE5: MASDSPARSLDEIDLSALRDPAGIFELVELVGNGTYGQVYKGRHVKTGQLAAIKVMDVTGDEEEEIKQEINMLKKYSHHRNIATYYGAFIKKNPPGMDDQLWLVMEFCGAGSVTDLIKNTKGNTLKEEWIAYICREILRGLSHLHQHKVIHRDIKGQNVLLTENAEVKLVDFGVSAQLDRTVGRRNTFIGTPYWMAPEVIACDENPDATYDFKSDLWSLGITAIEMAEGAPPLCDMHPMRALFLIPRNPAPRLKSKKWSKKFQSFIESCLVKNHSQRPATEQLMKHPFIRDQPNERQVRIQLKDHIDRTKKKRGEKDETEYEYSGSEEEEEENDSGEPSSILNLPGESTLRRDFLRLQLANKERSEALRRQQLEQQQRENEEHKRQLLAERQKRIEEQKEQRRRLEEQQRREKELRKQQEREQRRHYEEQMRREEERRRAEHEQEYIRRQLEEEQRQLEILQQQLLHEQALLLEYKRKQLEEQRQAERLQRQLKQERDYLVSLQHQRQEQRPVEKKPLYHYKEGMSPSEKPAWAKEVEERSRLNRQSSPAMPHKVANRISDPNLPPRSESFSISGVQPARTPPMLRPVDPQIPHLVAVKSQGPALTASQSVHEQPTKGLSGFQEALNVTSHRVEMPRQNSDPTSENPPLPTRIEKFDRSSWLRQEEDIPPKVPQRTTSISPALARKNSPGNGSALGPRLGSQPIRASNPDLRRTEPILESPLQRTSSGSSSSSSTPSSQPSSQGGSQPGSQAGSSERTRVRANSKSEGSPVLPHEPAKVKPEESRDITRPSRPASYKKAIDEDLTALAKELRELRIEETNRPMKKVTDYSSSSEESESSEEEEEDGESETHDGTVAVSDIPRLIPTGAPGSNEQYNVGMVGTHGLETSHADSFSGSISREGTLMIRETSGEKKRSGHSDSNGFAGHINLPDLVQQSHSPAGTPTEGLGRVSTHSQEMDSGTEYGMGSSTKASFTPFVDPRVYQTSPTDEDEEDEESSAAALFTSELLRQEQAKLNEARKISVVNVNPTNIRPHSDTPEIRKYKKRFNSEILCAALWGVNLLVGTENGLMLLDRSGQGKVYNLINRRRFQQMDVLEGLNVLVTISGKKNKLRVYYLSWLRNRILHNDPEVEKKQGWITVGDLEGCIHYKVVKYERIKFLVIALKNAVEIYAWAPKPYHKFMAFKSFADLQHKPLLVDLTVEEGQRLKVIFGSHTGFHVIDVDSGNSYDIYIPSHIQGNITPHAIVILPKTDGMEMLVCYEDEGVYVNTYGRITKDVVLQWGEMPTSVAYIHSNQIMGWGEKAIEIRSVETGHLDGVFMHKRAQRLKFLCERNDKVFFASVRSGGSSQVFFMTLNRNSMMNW

Assays:
[1] = target: T1, FLAG-TRAF2, full length human Traf2 with N-terminal FLAG epitope tag (human) (UniProt Q12933); test: co-immunoprecipitation: anti-HA IP, anti-FLAG blot, Phoenix-A cell lysates
T1 sequence: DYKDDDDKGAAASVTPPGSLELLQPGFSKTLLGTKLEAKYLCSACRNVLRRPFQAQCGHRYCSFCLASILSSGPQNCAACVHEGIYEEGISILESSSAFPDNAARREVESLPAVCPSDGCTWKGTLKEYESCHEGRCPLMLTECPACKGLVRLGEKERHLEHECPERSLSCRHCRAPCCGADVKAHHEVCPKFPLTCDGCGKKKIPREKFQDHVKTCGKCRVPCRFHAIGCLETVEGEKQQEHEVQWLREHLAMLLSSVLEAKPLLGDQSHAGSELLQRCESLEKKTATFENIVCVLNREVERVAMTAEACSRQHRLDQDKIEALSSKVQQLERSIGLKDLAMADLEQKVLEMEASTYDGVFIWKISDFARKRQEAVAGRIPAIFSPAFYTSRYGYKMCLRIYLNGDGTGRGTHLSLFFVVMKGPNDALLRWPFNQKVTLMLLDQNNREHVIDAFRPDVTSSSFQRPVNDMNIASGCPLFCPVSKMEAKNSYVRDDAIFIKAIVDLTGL

[2] = target: T1, FLAG-TRAF2, full length human Traf2 with N-terminal FLAG epitope tag (human); test: retelling of the co-immunoprecipitation mapping
[3] = target: T2, endogenous TRAF2 of Phoenix-A cells (UniProt Q12933); test: co-immunoprecipitation: anti-HA mAb IP, anti-Traf2 pAb blot
T2 sequence (looked up): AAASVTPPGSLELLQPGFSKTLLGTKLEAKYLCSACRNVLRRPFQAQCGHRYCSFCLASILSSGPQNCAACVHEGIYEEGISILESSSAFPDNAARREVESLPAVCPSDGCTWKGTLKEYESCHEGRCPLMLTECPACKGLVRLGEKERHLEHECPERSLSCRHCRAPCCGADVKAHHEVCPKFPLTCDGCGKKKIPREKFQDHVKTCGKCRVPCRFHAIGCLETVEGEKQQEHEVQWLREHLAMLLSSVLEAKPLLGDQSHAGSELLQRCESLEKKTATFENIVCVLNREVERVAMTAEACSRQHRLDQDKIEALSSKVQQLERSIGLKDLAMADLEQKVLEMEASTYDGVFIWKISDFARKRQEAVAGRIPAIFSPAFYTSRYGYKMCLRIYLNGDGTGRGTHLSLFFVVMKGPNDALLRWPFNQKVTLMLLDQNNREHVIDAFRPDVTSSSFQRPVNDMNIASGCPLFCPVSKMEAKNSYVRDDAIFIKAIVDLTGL

[4] = target: T2, endogenous TRAF2 of Phoenix-A cells; test: co-immunoprecipitation: anti-HA IP, anti-TRAF2 blot, Phoenix-A cell lysates

| Substance | binding [1] | binding [2] | binding [3] | binding [4] |
| --- | --- | --- | --- | --- |
| HA-Tnik(C1), truncated form of Tnik (from UniProt Q9UKE5 306-1360) (enzyme) | binds | – | – | – |
| HA-Tnik(WT), full length human Tnik isoform 1 with N-terminal HA epitope tag (from UniProt Q9UKE5 1-1360) (enzyme) | binds | binds | binds | binds |
